Measurements from paper PMC9317851, “Genomic Characterization of Bacillus safensis Isolated from Mine Tailings in Peru and Evaluation of Its Cyanide-Degrading Enzyme CynD” (Applied and Environmental Microbiology, 2022).
These are yes or no findings as the source states them, for the method shown. Some binding calls cover weakened binding; strength is not graded here. Tags and fused reporters may be left off the sequences shown.

Columns and labels:
[1] = biological target: Cyanide dihydratase CynD from Bacillus safensis PER-URP-08 (CynD_(PER-URP-08)), recombinant with C-terminal 6xHis tag (Bacillus safensis PER-URP-08) (UniProt P0DXY3); assay: negative-stain transmission electron microscopy; purified CynD at 3.25 or 1.625 mg/mL in 20 mM Tris-HCl (pH 8.0), 100 mM NaCl; stained with 2% uranyl acetate; both purified
[2] = biological target: Cyanide dihydratase CynD from Bacillus safensis PER-URP-08 (CynD_(PER-URP-08)), recombinant with C-terminal 6xHis tag (Bacillus safensis PER-URP-08) (UniProt P0DXY3); assay: condition: only at pH 11 (100-μL injection of 89.36 μM CynD); SEC-MALS; pH 11; 100 mM NaCl, 20 mM CAPS; 100-μL injection of 3.47 mg/mL (89.36 μM) CynD; Superdex 200 increase 10/300 GL; both purified

binding [1]: binds | binding [2]: no binding
B1: Cyanide dihydratase CynD from Bacillus safensis PER-URP-08 (CynD_(PER-URP-08)), recombinant with C-terminal 6xHis tag (enzyme, UniProt P0DXY3 1-330, looked up)
chain: MTSIYPKFRAAAVQAAPVYLNLEATVEKSCELIDEAASNGAKLVAFPEAFLPGYPWFAFIGHPEYTRKFYHELYKNAVEIPSLAIQKISEAAKRNETYVCISCSEKDGGSLYLAQLWFNPNGDLIGKHRKMRASVAERLIWGDGSGSMMPVFQTDIGNLGGLMCWEHQVPLDLMAMNAQNEQVHVASWPGYFDDEISSRYYAIATQTFVLMTSSIYTEEMKEMICLTQEQRDYFETFKSGHTCIYGPDGEPISDMVPAETEGIAYAEIDVERVIDYKYYIDPAGHYSNQSLSMNFNQQPTPVVKQLYHQKNEVFTYEDIQYQHGILEEKV
notes: Cyanide dihydratase CynD of Bacillus safensis PER-URP-08, locus EGI07_08135; monomer 38.5 kDa; The forward primer carries the NdeI site CATATG followed by a further atg, so an added N-terminal Met may be present; also called recombinant CynD; EGI07_08135; source: E. coli BL21(DE3)/pLysS, purified (Ni-NTA, size exclusion chromatography); not shown: 6xHis, C-terminal, kept
